Assay results reported in doi:10.1101/284166.
No constants are given. Whether binding was seen depends on the method and setting. In cells and extracts the contact can be indirect. Some results given as binding are weak or reduced against the parent protein; the word gives no strength.

Sequences of proteins named here, by UniProt entry; tags and fusion partners are left off. A change or cut given only in a name is not applied to a line headed by its entry. Residues count along the entry.
UniProt Q61768: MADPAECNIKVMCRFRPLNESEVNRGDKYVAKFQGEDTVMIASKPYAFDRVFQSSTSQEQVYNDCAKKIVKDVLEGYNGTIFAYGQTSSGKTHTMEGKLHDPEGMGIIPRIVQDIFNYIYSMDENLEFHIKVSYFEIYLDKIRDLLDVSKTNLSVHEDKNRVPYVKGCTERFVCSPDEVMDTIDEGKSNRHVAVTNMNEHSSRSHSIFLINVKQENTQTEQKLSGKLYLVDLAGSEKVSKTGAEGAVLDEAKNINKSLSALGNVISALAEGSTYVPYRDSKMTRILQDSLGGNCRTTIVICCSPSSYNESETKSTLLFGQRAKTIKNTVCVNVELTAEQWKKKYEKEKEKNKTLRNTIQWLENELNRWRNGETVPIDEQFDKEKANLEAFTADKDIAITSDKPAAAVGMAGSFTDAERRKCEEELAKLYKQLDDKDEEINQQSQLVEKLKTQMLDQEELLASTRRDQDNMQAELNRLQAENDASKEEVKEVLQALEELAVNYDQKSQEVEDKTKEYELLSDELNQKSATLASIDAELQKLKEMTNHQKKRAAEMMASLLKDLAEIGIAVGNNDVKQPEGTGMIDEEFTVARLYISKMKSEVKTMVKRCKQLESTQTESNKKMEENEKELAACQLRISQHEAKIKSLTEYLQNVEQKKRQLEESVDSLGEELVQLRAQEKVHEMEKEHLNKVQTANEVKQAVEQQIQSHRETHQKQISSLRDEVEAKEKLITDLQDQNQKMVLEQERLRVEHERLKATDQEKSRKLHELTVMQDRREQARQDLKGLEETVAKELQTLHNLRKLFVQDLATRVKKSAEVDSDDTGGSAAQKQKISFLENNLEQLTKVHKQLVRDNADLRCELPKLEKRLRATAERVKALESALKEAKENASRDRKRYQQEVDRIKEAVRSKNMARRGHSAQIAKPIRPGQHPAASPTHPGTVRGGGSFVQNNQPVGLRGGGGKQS
GST-Kif5b 891-963 (tail): residues 891-963 of Q61768
UniProt Q68FD5: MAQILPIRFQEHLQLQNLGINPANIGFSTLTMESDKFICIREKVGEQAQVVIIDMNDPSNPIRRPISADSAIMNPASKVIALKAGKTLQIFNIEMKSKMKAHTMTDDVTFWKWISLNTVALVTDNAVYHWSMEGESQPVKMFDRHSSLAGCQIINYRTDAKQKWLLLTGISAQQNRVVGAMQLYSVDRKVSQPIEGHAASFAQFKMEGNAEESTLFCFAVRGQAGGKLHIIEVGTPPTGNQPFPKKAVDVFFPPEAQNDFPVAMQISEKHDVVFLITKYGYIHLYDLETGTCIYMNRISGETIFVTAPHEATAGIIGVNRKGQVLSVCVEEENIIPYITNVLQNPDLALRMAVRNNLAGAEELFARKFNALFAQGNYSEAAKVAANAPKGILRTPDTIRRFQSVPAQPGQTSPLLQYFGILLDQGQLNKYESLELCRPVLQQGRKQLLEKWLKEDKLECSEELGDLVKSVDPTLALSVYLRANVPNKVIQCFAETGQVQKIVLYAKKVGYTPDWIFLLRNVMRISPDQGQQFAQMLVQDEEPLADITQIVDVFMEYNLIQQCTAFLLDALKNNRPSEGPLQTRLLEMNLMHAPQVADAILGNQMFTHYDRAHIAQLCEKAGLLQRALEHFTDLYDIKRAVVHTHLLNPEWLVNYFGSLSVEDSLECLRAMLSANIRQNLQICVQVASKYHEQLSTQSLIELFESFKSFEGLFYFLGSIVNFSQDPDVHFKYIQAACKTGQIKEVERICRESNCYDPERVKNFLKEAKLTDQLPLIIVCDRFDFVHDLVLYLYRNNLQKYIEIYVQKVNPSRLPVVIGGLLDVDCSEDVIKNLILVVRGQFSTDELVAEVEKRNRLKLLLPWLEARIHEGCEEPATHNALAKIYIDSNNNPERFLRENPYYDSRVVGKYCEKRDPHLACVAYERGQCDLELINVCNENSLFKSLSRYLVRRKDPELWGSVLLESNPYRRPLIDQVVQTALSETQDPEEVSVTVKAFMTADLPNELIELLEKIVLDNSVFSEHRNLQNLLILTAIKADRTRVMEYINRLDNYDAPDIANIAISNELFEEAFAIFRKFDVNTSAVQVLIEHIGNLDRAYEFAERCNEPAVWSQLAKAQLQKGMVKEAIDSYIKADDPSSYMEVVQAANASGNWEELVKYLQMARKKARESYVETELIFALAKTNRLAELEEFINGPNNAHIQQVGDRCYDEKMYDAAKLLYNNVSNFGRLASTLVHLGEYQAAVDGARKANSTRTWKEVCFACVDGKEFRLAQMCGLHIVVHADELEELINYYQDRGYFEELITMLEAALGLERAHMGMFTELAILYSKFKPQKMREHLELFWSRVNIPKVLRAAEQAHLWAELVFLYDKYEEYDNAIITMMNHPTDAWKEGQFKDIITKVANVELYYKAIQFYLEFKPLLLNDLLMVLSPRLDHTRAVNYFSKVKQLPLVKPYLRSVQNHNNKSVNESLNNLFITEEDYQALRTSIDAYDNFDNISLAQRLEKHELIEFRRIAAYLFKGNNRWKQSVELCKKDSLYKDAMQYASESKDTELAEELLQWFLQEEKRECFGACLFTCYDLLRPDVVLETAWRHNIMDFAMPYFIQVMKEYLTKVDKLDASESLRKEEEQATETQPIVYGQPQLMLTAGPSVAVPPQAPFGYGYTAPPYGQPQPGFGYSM

Key:
GST-Kif5b 891-963 (tail) = GST-Kif5b 891-963 (tail) (UniProt Q61768); experiment: pull-down
[1] = molecular target: clathrin heavy chain (CHC) (mouse (endogenous in mouse cortex and in Neuro2a)) (UniProt Q68FD5); experiment: co-IP
[2] = molecular target: Kif5b (kinesin-1 heavy chain) (mouse (endogenous in mouse cortex and in Neuro2a)) (UniProt Q61768); experiment: co-IP

For “flag-tagged CHC 1280-1429 (from UniProt Q68FD5 1280-1429) (domain or fragment)”, the binding (GST-Kif5b 891-963 (tail)) was “binds”.

“TAT-conjugated cell-penetrating peptide corresponding to Kif5b 891-915 (from UniProt Q61768 891-915)” was tested, and the binding [1] was “binds”.

B1: syntaxin 6 (protein, UniProt Q9JKK1 1-255)
chain: MSMEDPFFVVKGEVQKAVNTAQGLFQRWTELLQGPSAATREEIDWTTNELRNNLRSIEWDLEDLDETISIVEANPRKFNLDATELSIRKAFITSTRQIVRDMKDQMSASSVQALAERKNRQALLGDSSSQSWNAGVADRYGRLDRELQLANSHFIEEQQAQQQLIVEQQDEQLELVSGSIGVLKNMSQRIGGELEEQAVMLDDFSHELESTQSRLDNVMKKLAKVSHMTSDRRQWCAIAILFAVLVVVLILFLVL
In the case of B1, the binding [2] is reported as “no binding”.

B2: dynamin I (protein, UniProt P39053 1-867)
chain: MGNRGMEDLIPLVNRLQDAFSAIGQNADLDLPQIAVVGGQSAGKSSVLENFVGRDFLPRGSGIVTRRPLVLQLVNSTTEYAEFLHCKGKKFTDFEEVRLEIEAETDRVTGTNKGISPVPINLRVYSPHVLNLTLVDLPGMTKVPVGDQPPDIEFQIRDMLMQFVTKENCLILAVSPANSDLANSDALKIAKEVDPQGQRTIGVITKLDLMDEGTDARDVLENKLLPLRRGYIGVVNRSQKDIDGKKDITAALAAERKFFLSHPSYRHLADRMGTPYLQKVLNQQLTNHIRDTLPGLRNKLQSQLLSIEKEVDEYKNFRPDDPARKTKALLQMVQQFAVDFEKRIEGSGDQIDTYELSGGARINRIFHERFPFELVKMEFDEKELRREISYAIKNIHGIRTGLFTPDMAFETIVKKQVKKIREPCLKCVDMVISELISTVRQCTKKLQQYPRLREEMERIVTTHIREREGRTKEQVMLLIDIELAYMNTNHEDFIGFANAQQRSNQMNKKKTSGNQDEILVIRKGWLTINNIGIMKGGSKEYWFVLTAENLSWYKDDEEKEKKYMLSVDNLKLRDVEKGFMSSKHIFALFNTEQRNVYKDYRQLELACETQEEVDSWKASFLRAGVYPERVGDKEKASETEENGSDSFMHSMDPQLERQVETIRNLVDSYMAIVNKTVRDLMPKTIMHLMINNTKEFIFSELLANLYSCGDQNTLMEESAEQAQRRDEMLRMYHALKEALSIIGDINTTTVSTPMPPPVDDSWLQVQSVPAGRRSPTSSPTPQRRAPAVPPARPGSRGPAPGPPPAGSALGGAPPVPSRPGASPDPFGPPPQVPSRPNRAPPGVPSLGAWRLNSPQGKHENRAGKARL
For B2, the binding [2] was “no binding”.
